Sequences of proteins named here, by UniProt entry; tags and fusion partners are left off. A change or cut given only in a name is not applied to a line headed by its entry. Residues count along the entry.
UniProt P15516, residues 20-43: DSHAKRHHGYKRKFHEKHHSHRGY
UniProt P02788, residues 20-710: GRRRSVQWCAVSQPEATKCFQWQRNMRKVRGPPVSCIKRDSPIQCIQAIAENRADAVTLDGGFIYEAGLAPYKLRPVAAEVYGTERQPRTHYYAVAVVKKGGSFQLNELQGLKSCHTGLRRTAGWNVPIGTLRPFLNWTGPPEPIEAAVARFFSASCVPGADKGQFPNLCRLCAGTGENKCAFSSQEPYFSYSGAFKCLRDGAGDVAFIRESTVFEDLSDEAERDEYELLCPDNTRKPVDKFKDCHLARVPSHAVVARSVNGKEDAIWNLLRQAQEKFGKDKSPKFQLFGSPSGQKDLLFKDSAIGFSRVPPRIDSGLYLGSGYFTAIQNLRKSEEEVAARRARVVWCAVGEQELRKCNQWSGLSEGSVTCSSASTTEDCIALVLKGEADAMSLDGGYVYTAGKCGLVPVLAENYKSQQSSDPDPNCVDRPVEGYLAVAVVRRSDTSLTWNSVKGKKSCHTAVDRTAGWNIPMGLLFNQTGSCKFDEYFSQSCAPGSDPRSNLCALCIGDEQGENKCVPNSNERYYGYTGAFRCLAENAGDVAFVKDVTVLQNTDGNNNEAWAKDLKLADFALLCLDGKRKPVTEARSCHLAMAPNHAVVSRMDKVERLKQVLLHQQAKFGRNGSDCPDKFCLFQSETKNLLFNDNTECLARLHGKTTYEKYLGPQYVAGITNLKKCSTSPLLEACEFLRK
UniProt P07355: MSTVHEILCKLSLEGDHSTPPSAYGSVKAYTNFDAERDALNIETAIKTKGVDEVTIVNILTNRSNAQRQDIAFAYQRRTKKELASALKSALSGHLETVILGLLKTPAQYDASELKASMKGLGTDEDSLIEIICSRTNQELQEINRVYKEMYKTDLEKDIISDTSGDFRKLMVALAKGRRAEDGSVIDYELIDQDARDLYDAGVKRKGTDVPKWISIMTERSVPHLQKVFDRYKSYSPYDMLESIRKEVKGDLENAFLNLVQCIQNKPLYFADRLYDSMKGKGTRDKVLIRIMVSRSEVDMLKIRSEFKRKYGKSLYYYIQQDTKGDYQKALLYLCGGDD
UniProt Q19KS2: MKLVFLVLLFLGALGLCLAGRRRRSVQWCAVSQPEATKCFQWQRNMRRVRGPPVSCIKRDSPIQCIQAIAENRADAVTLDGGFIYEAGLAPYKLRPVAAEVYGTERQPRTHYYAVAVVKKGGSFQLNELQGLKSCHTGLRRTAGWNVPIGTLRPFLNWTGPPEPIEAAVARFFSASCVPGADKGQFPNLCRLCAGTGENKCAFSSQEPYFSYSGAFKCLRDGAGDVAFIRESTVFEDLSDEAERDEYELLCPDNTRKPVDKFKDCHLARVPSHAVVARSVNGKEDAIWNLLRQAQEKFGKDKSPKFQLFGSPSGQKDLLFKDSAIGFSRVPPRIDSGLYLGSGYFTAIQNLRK
UniProt P20930: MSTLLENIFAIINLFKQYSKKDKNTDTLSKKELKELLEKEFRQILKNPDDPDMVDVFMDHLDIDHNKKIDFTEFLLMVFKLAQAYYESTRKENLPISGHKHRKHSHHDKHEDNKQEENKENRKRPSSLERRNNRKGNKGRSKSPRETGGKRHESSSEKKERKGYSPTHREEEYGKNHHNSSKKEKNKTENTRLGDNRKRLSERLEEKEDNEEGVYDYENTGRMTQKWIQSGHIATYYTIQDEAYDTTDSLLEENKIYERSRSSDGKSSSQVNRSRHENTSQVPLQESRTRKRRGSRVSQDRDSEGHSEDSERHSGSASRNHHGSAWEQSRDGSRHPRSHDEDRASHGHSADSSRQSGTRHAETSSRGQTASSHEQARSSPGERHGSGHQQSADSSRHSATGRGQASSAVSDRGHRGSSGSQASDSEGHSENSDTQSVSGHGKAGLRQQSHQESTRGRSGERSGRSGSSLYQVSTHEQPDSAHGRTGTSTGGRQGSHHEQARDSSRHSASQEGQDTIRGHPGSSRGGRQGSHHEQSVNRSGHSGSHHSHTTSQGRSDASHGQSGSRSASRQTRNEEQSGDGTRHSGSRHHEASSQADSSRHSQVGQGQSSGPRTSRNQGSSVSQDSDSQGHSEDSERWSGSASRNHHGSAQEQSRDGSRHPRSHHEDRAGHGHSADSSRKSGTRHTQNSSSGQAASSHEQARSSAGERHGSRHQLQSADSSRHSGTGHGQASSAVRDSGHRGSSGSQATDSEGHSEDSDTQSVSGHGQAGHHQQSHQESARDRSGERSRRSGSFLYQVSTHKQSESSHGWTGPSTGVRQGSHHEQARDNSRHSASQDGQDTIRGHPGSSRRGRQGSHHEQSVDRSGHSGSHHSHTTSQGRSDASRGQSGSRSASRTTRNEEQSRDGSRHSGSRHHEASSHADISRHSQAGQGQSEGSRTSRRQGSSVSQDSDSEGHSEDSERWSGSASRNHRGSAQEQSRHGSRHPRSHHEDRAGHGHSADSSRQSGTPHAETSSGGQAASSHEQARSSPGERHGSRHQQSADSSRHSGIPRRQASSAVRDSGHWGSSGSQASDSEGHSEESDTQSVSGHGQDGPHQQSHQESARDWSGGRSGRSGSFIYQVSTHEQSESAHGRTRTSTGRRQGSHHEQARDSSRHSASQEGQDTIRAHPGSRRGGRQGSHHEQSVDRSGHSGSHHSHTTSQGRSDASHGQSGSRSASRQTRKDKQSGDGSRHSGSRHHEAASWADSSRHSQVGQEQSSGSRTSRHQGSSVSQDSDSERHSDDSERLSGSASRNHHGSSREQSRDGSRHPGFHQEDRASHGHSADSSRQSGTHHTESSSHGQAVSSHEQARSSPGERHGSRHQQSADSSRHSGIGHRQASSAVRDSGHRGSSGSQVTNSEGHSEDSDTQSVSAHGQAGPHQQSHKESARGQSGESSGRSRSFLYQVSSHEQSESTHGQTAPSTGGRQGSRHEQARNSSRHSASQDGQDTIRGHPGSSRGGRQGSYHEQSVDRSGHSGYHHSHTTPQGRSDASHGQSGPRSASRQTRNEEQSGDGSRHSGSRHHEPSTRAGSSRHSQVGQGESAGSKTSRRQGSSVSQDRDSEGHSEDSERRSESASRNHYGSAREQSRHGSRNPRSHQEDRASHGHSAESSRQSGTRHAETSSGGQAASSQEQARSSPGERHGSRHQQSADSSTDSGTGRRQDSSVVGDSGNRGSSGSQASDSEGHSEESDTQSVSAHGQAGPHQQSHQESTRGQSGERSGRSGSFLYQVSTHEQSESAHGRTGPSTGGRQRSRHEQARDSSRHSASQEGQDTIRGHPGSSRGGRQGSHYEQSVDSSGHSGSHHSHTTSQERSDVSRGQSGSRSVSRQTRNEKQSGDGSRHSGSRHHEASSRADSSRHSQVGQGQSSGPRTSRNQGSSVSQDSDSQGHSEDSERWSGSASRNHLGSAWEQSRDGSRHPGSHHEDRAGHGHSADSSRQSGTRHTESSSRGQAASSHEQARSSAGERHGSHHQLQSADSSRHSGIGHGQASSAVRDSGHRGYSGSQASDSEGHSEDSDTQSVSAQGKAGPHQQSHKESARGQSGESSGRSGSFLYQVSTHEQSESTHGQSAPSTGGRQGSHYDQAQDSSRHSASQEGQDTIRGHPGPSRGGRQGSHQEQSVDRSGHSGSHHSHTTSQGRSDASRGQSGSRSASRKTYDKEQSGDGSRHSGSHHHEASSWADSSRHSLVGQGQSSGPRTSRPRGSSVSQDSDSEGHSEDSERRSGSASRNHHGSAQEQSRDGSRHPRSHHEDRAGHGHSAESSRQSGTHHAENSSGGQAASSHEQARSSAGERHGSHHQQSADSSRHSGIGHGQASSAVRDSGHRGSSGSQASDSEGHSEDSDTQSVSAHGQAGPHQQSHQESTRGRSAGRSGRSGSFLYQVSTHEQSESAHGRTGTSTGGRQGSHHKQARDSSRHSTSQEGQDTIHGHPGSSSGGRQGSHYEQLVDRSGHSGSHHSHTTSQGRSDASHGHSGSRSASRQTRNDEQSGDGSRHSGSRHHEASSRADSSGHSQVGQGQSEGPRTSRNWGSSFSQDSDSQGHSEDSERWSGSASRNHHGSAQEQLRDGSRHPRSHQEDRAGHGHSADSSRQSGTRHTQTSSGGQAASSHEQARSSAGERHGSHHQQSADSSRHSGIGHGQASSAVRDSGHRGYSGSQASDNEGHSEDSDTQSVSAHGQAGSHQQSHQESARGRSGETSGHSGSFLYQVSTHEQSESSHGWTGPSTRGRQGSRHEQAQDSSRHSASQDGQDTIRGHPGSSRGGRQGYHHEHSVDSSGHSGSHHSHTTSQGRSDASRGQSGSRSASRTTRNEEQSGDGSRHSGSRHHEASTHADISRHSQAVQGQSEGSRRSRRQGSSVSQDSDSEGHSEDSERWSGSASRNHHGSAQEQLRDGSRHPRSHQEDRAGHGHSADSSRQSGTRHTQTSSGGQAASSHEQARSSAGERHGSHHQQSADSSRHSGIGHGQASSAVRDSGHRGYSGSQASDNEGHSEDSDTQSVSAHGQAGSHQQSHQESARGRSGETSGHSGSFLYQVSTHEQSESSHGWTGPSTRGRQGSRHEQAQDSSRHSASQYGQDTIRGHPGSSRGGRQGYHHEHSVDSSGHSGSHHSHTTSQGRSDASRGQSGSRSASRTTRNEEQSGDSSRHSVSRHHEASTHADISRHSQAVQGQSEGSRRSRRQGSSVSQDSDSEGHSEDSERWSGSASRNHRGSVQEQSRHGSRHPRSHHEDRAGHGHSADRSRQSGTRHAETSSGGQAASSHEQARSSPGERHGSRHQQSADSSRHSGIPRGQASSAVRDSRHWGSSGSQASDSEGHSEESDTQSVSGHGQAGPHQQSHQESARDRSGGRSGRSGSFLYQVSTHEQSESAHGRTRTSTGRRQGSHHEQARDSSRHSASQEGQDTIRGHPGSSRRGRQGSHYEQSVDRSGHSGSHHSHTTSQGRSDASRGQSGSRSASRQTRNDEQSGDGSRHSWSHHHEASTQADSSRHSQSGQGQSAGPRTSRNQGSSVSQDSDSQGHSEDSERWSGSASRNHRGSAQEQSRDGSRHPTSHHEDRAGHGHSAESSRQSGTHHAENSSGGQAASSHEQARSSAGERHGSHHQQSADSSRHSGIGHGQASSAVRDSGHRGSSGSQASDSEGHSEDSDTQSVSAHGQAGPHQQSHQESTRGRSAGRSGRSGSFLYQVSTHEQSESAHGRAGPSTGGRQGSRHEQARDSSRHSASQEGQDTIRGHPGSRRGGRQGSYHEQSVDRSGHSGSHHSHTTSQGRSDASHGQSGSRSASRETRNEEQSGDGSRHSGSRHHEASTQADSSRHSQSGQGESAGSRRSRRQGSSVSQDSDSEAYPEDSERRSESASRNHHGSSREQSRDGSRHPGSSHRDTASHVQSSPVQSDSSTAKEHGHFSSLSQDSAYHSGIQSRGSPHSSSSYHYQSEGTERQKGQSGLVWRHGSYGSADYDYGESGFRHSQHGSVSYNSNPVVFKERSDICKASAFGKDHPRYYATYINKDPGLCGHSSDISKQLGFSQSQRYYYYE
UniProt P08123, residues 80-1119: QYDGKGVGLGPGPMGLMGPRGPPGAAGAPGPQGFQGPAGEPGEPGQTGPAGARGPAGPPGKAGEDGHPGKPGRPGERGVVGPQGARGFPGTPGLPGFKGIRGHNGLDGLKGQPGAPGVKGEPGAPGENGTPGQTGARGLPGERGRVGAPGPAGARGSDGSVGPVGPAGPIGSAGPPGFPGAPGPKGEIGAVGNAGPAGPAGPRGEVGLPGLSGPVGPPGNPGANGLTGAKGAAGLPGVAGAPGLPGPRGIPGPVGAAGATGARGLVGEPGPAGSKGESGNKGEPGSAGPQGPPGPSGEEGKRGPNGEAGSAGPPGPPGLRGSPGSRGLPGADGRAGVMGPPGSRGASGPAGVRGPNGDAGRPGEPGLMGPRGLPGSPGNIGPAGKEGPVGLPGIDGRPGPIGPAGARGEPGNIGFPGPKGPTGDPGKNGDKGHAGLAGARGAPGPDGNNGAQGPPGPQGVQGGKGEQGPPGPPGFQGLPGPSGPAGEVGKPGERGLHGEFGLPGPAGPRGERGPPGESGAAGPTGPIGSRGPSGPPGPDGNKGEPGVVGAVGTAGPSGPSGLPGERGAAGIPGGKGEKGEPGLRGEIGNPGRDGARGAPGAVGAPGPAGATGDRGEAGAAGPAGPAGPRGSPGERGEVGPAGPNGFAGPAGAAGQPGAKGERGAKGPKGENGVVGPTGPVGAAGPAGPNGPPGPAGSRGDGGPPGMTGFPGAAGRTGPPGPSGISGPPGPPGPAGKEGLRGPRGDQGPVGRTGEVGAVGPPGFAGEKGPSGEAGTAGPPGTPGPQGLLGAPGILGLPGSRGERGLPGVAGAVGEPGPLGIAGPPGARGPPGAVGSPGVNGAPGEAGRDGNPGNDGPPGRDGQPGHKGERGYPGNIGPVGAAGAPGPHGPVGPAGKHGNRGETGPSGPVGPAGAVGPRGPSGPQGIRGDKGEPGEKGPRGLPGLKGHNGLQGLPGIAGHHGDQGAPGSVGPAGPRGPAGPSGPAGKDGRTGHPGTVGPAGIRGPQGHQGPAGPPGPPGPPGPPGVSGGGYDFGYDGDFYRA

According to article PMC4636238:

How the values were obtained:
[1] = target: biotinylated histatin 5 (human) (UniProt P15516); test: affinity purification with mass spectrometry; pull-down: biotinylated histatin 5 on immobilized streptavidin agarose beads; 300 ug lyophilized parotid saliva in pH 7.0 binding buffer, 4 h, 4°C; washed with PBS with 75 mM NaCl pH 5.0; eluted at pH 2.8; trypsin digestion, LC-ESI-MS/MS; only the target purified
histatin 5 (human) = histatin 5 (human) (UniProt P15516); test: affinity purification with mass spectrometry; co-IP: synthetic histatin 5 held by mouse anti-histatin 3/5 monoclonal antibody on protein G magnetic beads; 300 ug pooled parotid saliva protein in PBS pH 7.5, 4°C, 24 h; washed with PBS; eluted with 2.5% acetic acid; in-solution or in-gel trypsin digestion, LC-ESI-MS/MS; only the target purified

Molecule	binding [1]	binding (histatin 5 (human))
Lactoferroxin-C (from UniProt P02788 20-710)	binds	binds
Coagulation factor VIII (from UniProt P00451 20-2351)	binds	binds
Carbonic anhydrase 6 (from UniProt P23280 18-308) (enzyme)	binds	binds
Lactoperoxidase (from UniProt P22079 81-712) (enzyme)	binds	binds
Chromatin assembly factor 1, subunit A (P150), isoform CRA_a (from UniProt Q13111 1-956)	binds	binds
Lactotransferrin (from UniProt P02788 20-710)	binds	binds
Titin (from UniProt Q8WZ42 1-34350)	binds	binds
Hornerin (from UniProt Q86YZ3 1-2850)	binds	binds
Dedicator of cytokinesis 5, isoform CRA_a (from UniProt Q9H7D0 1-1870)	binds	binds
Annexin (Fragment) (from UniProt P07355 1-339)	binds	binds
Immunoglobulin heavy chain variant (Fragment) (from UniProt Q9NPP6 1-416)	binds	binds
Dedicator of cytokinesis protein 4 (from UniProt Q8N1I0 1-1966)	binds	binds
Basic salivary proline-rich protein 2 (Fragment) (from UniProt P02812 17-416)	binds	binds
Deleted in malignant brain tumors 1 protein (from UniProt Q9UGM3 20-2413)	binds	binds
IGL@ protein (Q8N355) (from UniProt Q8N355)	binds	binds
Unconventional myosin-VIIb (from UniProt Q6PIF6 1-2116)	binds	binds
Lactoferrin (Fragment) (from UniProt Q19KS2)	binds	binds
IGL@ protein (Q8N5F4) (from UniProt Q8N5F4)	binds	binds
Filaggrin (from UniProt P20930 1-4061)	binds	binds
Collagen alpha-2(I) chain (from UniProt P08123 80-1119)	binds	binds
Pro-alpha-1 type V collagen variant (Fragment) (from UniProt P20908 38-1605)	binds	binds
1-phosphatidylinositol 4,5-bisphosphate phosphodiesterase eta-1 (from UniProt Q4KWH8 1-1693)	binds	binds
Lim-homeobox transcription factor LHX3 (protein, UniProt Q9UBR4 1-397) MLLETGLERDRARPGAAAVCTLGGTREIPLCAGCDQHILDRFILKALDRHWHSKCLKCSDCHTPLAERCFSRGESVYCKDDFFKRFGTKCAACQLGIPPTQVVRRAQDFVYHLHCFACVVCKRQLATGDEFYLMEDSRLVCKADYETAKQREAEATAKRPRTTITAKQLETLKSAYNTSPKPARHVREQLSSETGLDMRVVQVWFQNRRAKEKRLKKDAGRQRWGQYFRNMKRSRGGSKSDKDSVQEGQDSDAEVSFPDEPSLAEMGPANGLYGSLGEPTQALGRPSGALGNFSLEHGGLAGPEQYRELRPGSPYGVPPSPAAPQSLPGPQPLLSSLVYPDTSLGLVPSGAPGGPPPMRVLAGNGPSSDLSTGSSGGYPDFPASPASWLDEVDHAQF	binds	binds

These are yes or no findings as the source states them, for the method shown. In cells and extracts the contact can be indirect. Here binding means that the protein was enriched with, or labelled near, the bait; the list need not be complete.
